Drawing on PubChem BioAssay AID248 (DTP/NCI, 2004), this text covers T/C and survivor count for twelve molecules.

The assay relates to L1210 leukemia ip in BDF1 mice, survival T/C. The assay is described as follows: NCI In Vivo Anticancer Drug Screen. Data for tumor model L1210 Leukemia (intraperitoneal) in B6D2F1 (BDF1) mice. The conditions noted are these: T/C endpoint: mean survival time, higher T/C = longer survival.
[1] abbreviates: dose: 112.0 mg/kg/injection, schedule: Q01DX001 (oral), vehicle: saline.
Where [2] appears, read: dose: 300.0 mg/kg/injection, schedule: Q01DX001 (ip), vehicle: carboxymethylcellulose (CMC).
[3] abbreviates: dose: 200.0 mg/kg/injection, schedule: Q04DX003 (ip), vehicle: saline.
Setting [4] is: dose: 400.0 mg/kg/injection, schedule: Q04DX003 (ip), vehicle: saline.
The mark [5] stands for this setting: dose: 400.0 mg/kg/injection, schedule: Q01DX001 (ip), vehicle: saline.
The mark [6] stands for this setting: dose: 200.0 mg/kg/injection, schedule: Q01DX001 (ip), vehicle: saline.

The list is a part of this screen's results and no random one: it gathers tests that were run many times, whatever their T/C, doses with no T/C, and many T/C values between a quarter and a half above the control. Other doses and runs of a compound stand elsewhere. T/C is the treated group as % of the vehicle group. Some doses have a count of surviving animals in place of a T/C: the source files T/C as zero there, which appears to mark a toxic dose or a test without result, not a measured value. Some survivor counts are full or nearly so, which does not show that the dose was tolerated: survival well below the control is almost never listed, so the zero probably covers shortened survival too. Counts of survivors are from the toxicity check (mostly the fifth day) where no day follows; animals may have died later. Schedules are NCI's codes, taken here to give the interval after Q, in days (D) or hours (H), and the number of doses after X. Some schedule codes hold Z or #, which are not explained here. Where survival is the endpoint, this PubChem deposit counts one and a half times the control or more as active, and values a quarter to a half above the control carry no call in these data; other NCI protocols may use other cut-offs. Some T/C values carry the count of animals alive at the toxicity check (mostly the fifth day); where none is given, no animal had died by that day. Some entries hold several experiments; their values stand side by side, smallest first.

On to `CC(=O)NC1=C(N2CC2)C(=O)C(NC(C)=O)=C(N2CC2)C1=O`, for which the T/C reads like this: (dose: 0.13 mg/kg/injection, schedule: Q01DX Z (ip), vehicle: saline) 131 % of control; (dose: 0.25 mg/kg/injection, schedule: Q01DX006 (iv), vehicle: saline) 136 % of control; (dose: 0.25 mg/kg/injection, schedule: Q01DX Z (ip), vehicle: saline) 143 % of control; (dose: 0.5 mg/kg/injection, schedule: Q01DX006 (iv), vehicle: saline) 125 and 134 % of control; (dose: 0.5 mg/kg/injection, schedule: Q01DX Z (im), vehicle: saline) 132 % of control; (dose: 0.5 mg/kg/injection, schedule: Q01DX Z (sc), vehicle: saline) 139 % of control. Also, the T/C (dose: 0.75 mg/kg/injection, schedule: Q03DX006 (oral), vehicle: saline) was 138 % of control; the T/C (dose: 1.0 mg/kg/injection, schedule: Q01DX006 (iv), vehicle: saline) was 143 % of control; the T/C (dose: 1.0 mg/kg/injection, schedule: Q01DX Z (im), vehicle: saline) was 147 % of control; the T/C (dose: 1.0 mg/kg/injection, schedule: Q01DX Z (ip), vehicle: saline) is 145 % of control; the T/C (dose: 1.5 mg/kg/injection, schedule: Q01DX Z (ip), vehicle: carboxymethylcellulose (CMC)) is 131 % of control; the T/C (dose: 2.0 mg/kg/injection, schedule: Q01DX Z (ip), vehicle: saline) was 142 % of control. The T/C reads like this: (dose: 2.0 mg/kg/injection, schedule: Q01DX Z (sc), vehicle: saline) 144 % of control; (dose: 2.0 mg/kg/injection, schedule: Q#A X Z (oral), vehicle: saline) 145 % of control; (dose: 4.0 mg/kg/injection, schedule: Q01DX Z (oral), vehicle: saline) 128 and 145 % of control; (dose: 4.0 mg/kg/injection, schedule: Q#A X Z (oral), vehicle: saline) 145 % of control; (dose: 6.0 mg/kg/injection, schedule: Q03DX006 (oral), vehicle: saline) 130 % of control; (dose: 7.0 mg/kg/injection, schedule: Q01DX001 (oral), vehicle: saline) 127 % of control [5 of 6 alive]. The T/C is, setting by setting: (dose: 12.0 mg/kg/injection, schedule: Q03DX006 (oral), vehicle: saline) 136 % of control; (dose: 14.0 mg/kg/injection, schedule: Q01DX001 (oral), vehicle: saline) 131 [5 of 6 alive] and 138 % of control; (dose: 14.0 mg/kg/injection, schedule: Q07DX003 (oral), vehicle: saline) 142 % of control; (dose: 24.0 mg/kg/injection, schedule: Q03DX006 (oral), vehicle: saline) 145 % of control [5 of 6 alive]; (dose: 28.0 mg/kg/injection, schedule: Q01DX001 (oral), vehicle: saline) 130 and 145 % of control; (dose: 48.0 mg/kg/injection, schedule: Q03DX006 (oral), vehicle: saline) 142 % of control. In addition, the T/C was 139 and 143 % of control [5 of 6 alive] (dose: 56.0 mg/kg/injection, schedule: Q01DX001 (oral), vehicle: saline); 140 % of control [5 of 6 alive] (dose: 56.0 mg/kg/injection, schedule: Q07DX003 (oral), vehicle: saline); 127 % of control under setting [1]. Besides, the survivor count (dose: 2.8 mg/kg/injection, schedule: Q01DX Z (ip), vehicle: other) is recorded as 7 of 7; the survivor count (dose: 4.0 mg/kg/injection, schedule: Q01DX Z (im), vehicle: saline) is listed as 6 of 6; the survivor count (dose: 4.0 mg/kg/injection, schedule: Q01DX Z (ip), vehicle: other) is reported as 4 of 7; the survivor count (dose: 4.0 mg/kg/injection, schedule: Q01DX Z (ip), vehicle: saline) was 6 of 6; the survivor count (dose: 5.0 mg/kg/injection, schedule: Q01DX Z (ip), vehicle: carboxymethylcellulose (CMC)) is 5 of 6; the survivor count (dose: 7.0 mg/kg/injection, schedule: Q07DX002 (oral), vehicle: saline) is recorded as 3 of 6. For the same molecule, the survivor count by setting is: (dose: 7.4 mg/kg/injection, schedule: Q01DX Z (ip), vehicle: carboxymethylcellulose (CMC)) 6 of 6; (dose: 8.0 mg/kg/injection, schedule: Q01DX006 (iv), vehicle: saline) 2 of 6; (dose: 8.0 mg/kg/injection, schedule: Q01DX Z (ip), vehicle: saline) 2 of 6; (dose: 10.0 mg/kg/injection, schedule: Q01DX Z (ip), vehicle: carboxymethylcellulose (CMC)) 4 of 6; (dose: 32.0 mg/kg/injection, schedule: Q#A X Z (oral), vehicle: saline) 5 of 6; (dose: 64.0 mg/kg/injection, schedule: Q#A X Z (oral), vehicle: saline) 3 of 6. Also, the survivor count by setting is: (dose: 96.0 mg/kg/injection, schedule: Q03DX006 (oral), vehicle: saline) 2 of 6; under setting [1], 3 of 6; (dose: 192.0 mg/kg/injection, schedule: Q03DX006 (oral), vehicle: saline) 2 of 6; (dose: 384.0 mg/kg/injection, schedule: Q03DX006 (oral), vehicle: saline) 0 of 6.

Regarding `Cc1ccc(C(=O)NC(N)=O)cc1`, the survivor count (dose: 400.0 mg/kg/injection, schedule: Q01DX009 (ip), vehicle: Klucel (hydroxypropylcellulose) (HPC)) is recorded as 6 of 6.

Take `CCCCCCCCCCOP1(=O)C=C(C)CC1` (centres undefined): the survivor count (dose: 400.0 mg/kg/injection, schedule: Q04DX003 (ip), vehicle: saline with Tween-80) is given as 3 of 6.

Consider `COc1ccc(Cl)cc1/C=C\C=N\NC(=O)C[N+](C)(C)C`, for which the survivor count (dose: 60.0 mg/kg/injection, schedule: Q01DX001 (ip), vehicle: carboxymethylcellulose (CMC)) was 2 of 6; the survivor count (dose: 75.0 mg/kg/injection, schedule: Q01DX001 (ip), vehicle: carboxymethylcellulose (CMC)) was 0 of 6; the survivor count (dose: 150.0 mg/kg/injection, schedule: Q01DX001 (ip), vehicle: carboxymethylcellulose (CMC)) is listed as 0 of 6; the survivor count under setting [2] is given as 0 of 6.

As to `Oc1ccccc1C=NCCN1CC1.Oc1ccccc1C=NCCN1CC1.[Ni+2]`, the survivor count is recorded as 0 of 6 (dose: 50.0 mg/kg/injection, schedule: Q01DX009 (ip), vehicle: saline with Tween-80); 0 of 6 (dose: 100.0 mg/kg/injection, schedule: Q01DX009 (ip), vehicle: saline with Tween-80); 1 of 6 under setting [3]; 0 of 6 under setting [4].

Take `CNC(=O)NC(C)=C(C#N)C#N`: the survivor count (dose: 300.0 mg/kg/injection, schedule: Q01DX001 (ip), vehicle: saline) is 0 of 6.

With `O=[N+]([O-])c1sc2ccccc2c1Br`, the survivor count by setting is: (dose: 20.0 mg/kg/injection, schedule: Q04DX003 (ip), vehicle: Klucel (hydroxypropylcellulose) (HPC)) 3 of 6; (dose: 40.0 mg/kg/injection, schedule: Q04DX003 (ip), vehicle: Klucel (hydroxypropylcellulose) (HPC)) 1 of 6; (dose: 80.0 mg/kg/injection, schedule: Q04DX003 (ip), vehicle: Klucel (hydroxypropylcellulose) (HPC)) 0 of 6.

For the molecule `N#CCC(c1ccccc1)C(C#N)c1ccccc1` (centres undefined), the survivor count under setting [2] is 3 of 6.

Turning to `S=c1ssc2ccccc12`, the survivor count under setting [5] was 6 of 6.

With `CN(C)CCC(=O)c1ccccc1`, the survivor count runs as follows: (dose: 100.0 mg/kg/injection, schedule: Q04DX003 (ip), vehicle: saline) 3 of 6; under setting [6], 0 of 4; under setting [3], 0 of 6; under setting [5], 0 of 4; under setting [4], 0 of 6.

For `Cc1nc(C(=O)NN)co1`, the survivor count is 0 of 4 under setting [6] and 0 of 4 under setting [5].

Turning to `CNC(=O)NN`, the survivor count is 1 of 3 (dose: 100.0 mg/kg/injection, schedule: Q04DX002 (ip), vehicle: saline with Tween-80); 0 of 3 (dose: 200.0 mg/kg/injection, schedule: Q04DX002 (ip), vehicle: saline with Tween-80); 0 of 3 (dose: 400.0 mg/kg/injection, schedule: Q04DX002 (ip), vehicle: saline with Tween-80).
